# PubChem BioAssay AID602196 | INSERM | 2012
# Screen: 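Knock-downs that protect lung cancer cells from cisplatin or sensitise them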
# Cell system: human A549 lung cancer cells
# Reagent: siRNA pair against human genes
# Timing: 48 h transfection before cisplatin; time from cisplatin to read-out not stated
# Challenge: cisplatin at a dose killing half of control-siRNA cells; exact dose and duration not given
# Measurement: 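Shift in cisplatin death relative to control siRNA, from -50 (all cells die) to +50 (no cells die); siRNAs harmful on their own scored 0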
# Scale: two-siRNA summed score (-2 to +2): higher = both siRNAs protect from cisplatin killing; -2 means both sensitise; mean protection from cisplatin (shift in death) and protection from cisplatin (shift in death), siRNA C and protection from cisplatin (shift in death), siRNA D: higher = protection from cisplatin killing
# Active means: 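siRNAs harmful alone (LDH or WST-1) get 0; others get +1 for less and -1 for more cisplatin killing; genes are active when the two siRNAs give the same sign, summing to ±2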
# Meaning of the calls: active = both siRNAs shift cisplatin killing the same way; inactive = no consistent shift, or siRNA harmful alone
# The deposit covers about 23,000 reagents; below is a part drawn at random. 455 of all reagents (2%) count as active. 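Active includes both protection and sensitisation; some change values fall well beyond the stated -50 to +50 range.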 Entries without a mark were called inactive. Not given: the amount of reagent.
target,two-siRNA summed score (-2 to +2),mean protection from cisplatin (shift in death) (%),"protection from cisplatin (shift in death), siRNA C (%)","protection from cisplatin (shift in death), siRNA D (%)"
AMOTL1,0,-2.4,-13.1,8.3
SIGLEC16,0,2.3,1,3.5
UFL1,1,10.8,16.5,5.1
MT1A,0,10.5,16.9,4.2
SMAD9,0,-1.2,-4.6,2.2
DLK2,0,7.6,5.1,10.1
CANX,0,1.7,9.8,-6.5
S100A2,0,15.1,23.1,7.1
VEGFB,0,7.6,20.3,-5
LOC441389,1,5.8,3.7,8
PDE4DIP,0,17.9,11.7,24.1
CYB5D1,0,2.4,2.4,2.4
VAV1,1,5.8,-5.7,17.2
LINC01667,0,10.6,14.2,7
KRT78,0,6.7,-10.1,23.4
TUBB7P,0,-11.9,3.2,-27.1
PRSS23,0,-0.8,6.3,-7.9
OR10T2,0,-6.5,-4.3,-8.6
MFAP1,0,0,-6.8,6.8
NUP210L,0,8.5,5.2,11.7
SMR3B,0,7.5,7.5,7.4
LOC441883,0,32.3,25,39.7
CSNK1G1,1,8.4,16,0.7
PNLDC1,0,0.4,4.2,-3.4
CHST11,0,7.1,7.6,6.6
LOC286423,0,20.5,11.3,29.8
NR1D1,0,-7.3,-17.2,2.7
ZKSCAN3,0,-1.7,-2.1,-1.4
PTPN5,1,4.8,18.2,-8.5
LGALS3BP,0,-4.7,8.6,-17.9
BCL2L2,1,0.4,10.2,-9.4
MEIS2,1,14.6,9.4,19.7
SUGT1,0,1.6,5.5,-2.3
CNN2,0,5.5,1.5,9.5
AMOT,0,5.7,3.5,7.9
MGAT4C,1,12.3,4.9,19.8
LOC285658,1,24.8,33.9,15.6
DRC5,0,-0.1,-9.8,9.6
KIAA0319,0,8.9,1.7,16.1
CUEDC2,0,-4.4,-6.6,-2.3
ADGRG6,0,3.1,4.6,1.7
GRIN2D,-1,-6.2,-0.3,-12.2
ZNF560,0,3,7,-1.1
ADNP2,1,12.2,14.8,9.6
SLC22A25,1,13.2,8.1,18.4
MXRA8,0,-5.7,-2,-9.3
CEACAM1,0,5.8,-4.5,16.2
SYTL1,0,9.4,-2.8,21.5
ZNF92,1,15.2,10.8,19.6
LOC402110,1,13.6,15.3,12
TCF3,0,0.6,-4.9,6
TLCD1,0,9.8,6.9,12.7
LOC440422,0,7.6,10.2,5.1
CCL4L2,0,-1,-1.7,-0.3
PRSS35,0,7.4,6,8.7
C2CD4C,1,6.7,13.5,-0.2
VSX1,0,13.5,7.2,19.8

Look-ups from above:
Under “mean protection from cisplatin (shift in death) (%)”, BCL2L2 shows 0.4
Result for PRSS23 under “protection from cisplatin (shift in death), siRNA C (%)”: 6.3
SMR3B, protection from cisplatin (shift in death), siRNA D (%) = 7.4
Entry of VSX1 under “protection from cisplatin (shift in death), siRNA D (%)”: 19.8
